# From the supplement of paper PMC4604168 (melanoma cell lines)
# The list shows a part of the results. Many values rest on one well or one pass, so single values are uncertain.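 Imaging used 1,536-well plates; nuclei positive for cleaved PARP by antibody were divided by total DNA-stained nuclei to yield the apoptosis fraction. Doses for screening kept most cells viable, and cell lines differ markedly in resting and induced cleaved-PARP levels.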
# System: LB2518-MEL
# Experiment: cleaved PARP positive nuclei fraction relative to DMSO control; melanoma cells; higher = more apoptosis
# Conditions: library dose: low library concentration; 72 h
row,SMILES,cleaved PARP positive nuclei fraction [%]
1,"NC(=O)c1ccc(N(C(N)=O)c2c(F)cccc2F)nc1-c1ccc(F)cc1F + CC(=O)c1c(C)c2cnc(Nc3ccc(N4CCNCC4)cn3)nc2n(C2CCCC2)c1=O [palbociclib] (first compound 0.4 µM, partner dose 0.04 µM)",144
2,"CC1(C)CCC(c2ccc(Cl)cc2)=C(CN2CCN(c3ccc(C(=O)NS(=O)(=O)c4ccc(N[C@H](CCN5CCOCC5)CSc5ccccc5)c(S(=O)(=O)C(F)(F)F)c4)cc3)CC2)C1 + CNC(=O)c1cc(Oc2ccc(NC(=O)Nc3ccc(Cl)c(C(F)(F)F)c3)cc2)ccn1 [sorafenib] (first compound 0.4 µM, partner dose 0.4 µM)",119
3,"NC(=O)c1ccc(N(C(N)=O)c2c(F)cccc2F)nc1-c1ccc(F)cc1F + COc1ccc(C2=N[C@@H](c3ccc(Cl)cc3)[C@@H](c3ccc(Cl)cc3)N2C(=O)N2CCNC(=O)C2)c(OC(C)C)c1 [Nutlin-3] (first compound 0.4 µM, partner dose 0.1 µM)",213
4,"C[C@]1(O)C[C@@H](c2nc(-c3ccc4ccc(-c5ccccc5)nc4c3)c3c(N)nccn32)C1 + Cn1c(=O)n(-c2ccc(C(C)(C)C#N)cc2)c2c3cc(-c4cnc5ccccc5c4)ccc3ncc21 [NVP-BEZ235] (first compound 0.4 µM, partner dose 0.004 µM)",239
5,"CC1(C)CCC(c2ccc(Cl)cc2)=C(CN2CCN(c3ccc(C(=O)NS(=O)(=O)c4ccc(N[C@H](CCN5CCOCC5)CSc5ccccc5)c(S(=O)(=O)C(F)(F)F)c4)cc3)CC2)C1 + Nc1ncn([C@H]2C[C@H](O)[C@@H](CO)O2)c(=O)n1 [decitabine] (first compound 0.4 µM, partner dose 0.1 µM)",147

# System: LOXIMVI
# Experiment: as above
# Conditions: library dose: low library concentration; 72 h
row,SMILES,cleaved PARP positive nuclei fraction [%]
1,"CC1(C)CCC(c2ccc(Cl)cc2)=C(CN2CCN(c3ccc(C(=O)NS(=O)(=O)c4ccc(N[C@H](CCN5CCOCC5)CSc5ccccc5)c(S(=O)(=O)C(F)(F)F)c4)cc3)CC2)C1 + Cc1cn(-c2cc(NC(=O)c3ccc(C)c(Nc4nccc(-c5cccnc5)n4)c3)cc(C(F)(F)F)c2)cn1 [nilotinib] (first compound 0.4 µM, partner dose 0.2 µM)",108
2,"C[C@@H](N)c1ccc(C(=O)Nc2ccnc3[nH]ccc23)cc1 + CCCCCCCCc1ccc(CCC(N)(CO)CO)cc1 [fingolimod] (first compound 0.4 µM, partner dose 2 µM)",46.6
3,"Cn1cnc2c(F)c(Nc3ccc(Br)cc3Cl)c(C(=O)NOCCO)cc21 [selumetinib] + CCCCCCCCc1ccc(CCC(N)(CO)CO)cc1 [fingolimod] (first compound 0.015 µM, partner dose 2 µM)",55.7
4,"C[C@]1(O)C[C@@H](c2nc(-c3ccc4ccc(-c5ccccc5)nc4c3)c3c(N)nccn32)C1 + Nc1ccn([C@@H]2O[C@H](CO)[C@@H](O)C2(F)F)c(=O)n1 [gemcitabine] (first compound 0.4 µM, partner dose 0.0004 µM)",107
5,"CCCCCCCCc1ccc(CCC(N)(CO)CO)cc1 [fingolimod] + Nc1nc(F)nc2c1ncn2[C@@H]1O[C@H](CO)[C@@H](O)[C@@H]1O [fludarabine] (first compound 2 µM, partner dose 0.2 µM)",123
6,"CCCCCCCCc1ccc(CCC(N)(CO)CO)cc1 [fingolimod] + C#Cc1cccc(Nc2ncnc3cc(OCCOC)c(OCCOC)cc23)c1 [erlotinib] (first compound 2 µM, partner dose 0.8 µM)",147
7,"C[C@]1(O)C[C@@H](c2nc(-c3ccc4ccc(-c5ccccc5)nc4c3)c3c(N)nccn32)C1 + O=C(O)[C@@H]1[O][Sb](=[O])([O][Sb]2(=[O])[O][C@H]([C@H](O)CO)[C@H](O)[C@H](C(=O)O)[O]2)[O][C@H]([C@H](O)CO)[C@@H]1O [stibogluconate] (first compound 0.4 µM, partner dose 2 µM)",125
8,"CC1(C)CCC(c2ccc(Cl)cc2)=C(CN2CCN(c3ccc(C(=O)NS(=O)(=O)c4ccc(N[C@H](CCN5CCOCC5)CSc5ccccc5)c(S(=O)(=O)C(F)(F)F)c4)cc3)CC2)C1 + COc1ccc(Cl)c(Nc2nc3ccccc3nc2NS(=O)(=O)c2cccc(NC(=O)C(C)(C)N)c2)c1 [XL147] (first compound 0.4 µM, partner dose 0.8 µM)",183

# Three successive entries already listed, quoted:
row,SMILES,cleaved PARP positive nuclei fraction [%]
1,"CC1(C)CCC(c2ccc(Cl)cc2)=C(CN2CCN(c3ccc(C(=O)NS(=O)(=O)c4ccc(N[C@H](CCN5CCOCC5)CSc5ccccc5)c(S(=O)(=O)C(F)(F)F)c4)cc3)CC2)C1 + Cc1cn(-c2cc(NC(=O)c3ccc(C)c(Nc4nccc(-c5cccnc5)n4)c3)cc(C(F)(F)F)c2)cn1 [nilotinib] (first compound 0.4 µM, partner dose 0.2 µM)",108
2,"C[C@@H](N)c1ccc(C(=O)Nc2ccnc3[nH]ccc23)cc1 + CCCCCCCCc1ccc(CCC(N)(CO)CO)cc1 [fingolimod] (first compound 0.4 µM, partner dose 2 µM)",46.6
3,"Cn1cnc2c(F)c(Nc3ccc(Br)cc3Cl)c(C(=O)NOCCO)cc21 [selumetinib] + CCCCCCCCc1ccc(CCC(N)(CO)CO)cc1 [fingolimod] (first compound 0.015 µM, partner dose 2 µM)",55.7
